Reference: patent US20150073033A1, “BIOMARKERS FOR CANCER CHARACTERIZATION AND TREATMENT” (Board of Regents, The University of Texas System, priority 2011, published 2015)
No constants are given. Whether binding was seen depends on the method and setting. For some assays here: In cells and extracts the contact can be indirect. Some entries that bind do so weakly or less than the wild type. For some assays here: Tags and fused reporters may be left off the sequences shown.

Chains of the proteins cited; added tags and fusions are not shown.
UniProt Q02156: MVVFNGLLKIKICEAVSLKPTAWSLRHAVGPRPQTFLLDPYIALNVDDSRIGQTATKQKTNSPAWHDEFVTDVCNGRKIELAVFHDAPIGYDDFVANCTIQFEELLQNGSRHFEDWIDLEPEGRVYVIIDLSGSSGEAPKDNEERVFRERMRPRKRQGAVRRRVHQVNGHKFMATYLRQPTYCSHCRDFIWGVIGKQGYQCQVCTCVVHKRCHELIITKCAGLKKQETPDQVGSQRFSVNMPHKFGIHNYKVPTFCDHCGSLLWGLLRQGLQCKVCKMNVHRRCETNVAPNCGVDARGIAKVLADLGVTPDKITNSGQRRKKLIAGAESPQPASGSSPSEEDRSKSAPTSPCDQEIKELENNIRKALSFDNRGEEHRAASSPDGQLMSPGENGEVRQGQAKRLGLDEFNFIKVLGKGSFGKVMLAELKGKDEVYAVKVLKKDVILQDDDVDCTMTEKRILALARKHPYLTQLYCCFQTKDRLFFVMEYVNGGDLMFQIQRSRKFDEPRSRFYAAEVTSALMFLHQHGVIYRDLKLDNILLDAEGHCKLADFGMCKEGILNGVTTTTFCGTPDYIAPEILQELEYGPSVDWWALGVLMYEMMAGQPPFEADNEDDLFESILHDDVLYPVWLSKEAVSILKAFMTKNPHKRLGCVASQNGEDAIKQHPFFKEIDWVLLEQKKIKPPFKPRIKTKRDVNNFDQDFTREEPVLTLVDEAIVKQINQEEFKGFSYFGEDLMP

Columns and labels:
[1] = target: endogenous PKCε (U87/EGFR or U251 cells) (human) (UniProt Q02156); test: IP of PKCε, anti-IKKβ immunoblot, U87/EGFR or U251 cells
purified active GST-PKCε = purified active GST-PKCε (UniProt Q02156); test: His pull-down on nickel agarose beads, purified proteins

Binder	binding [1]	binding (purified active GST-PKCε)
endogenous IKKβ (U87/EGFR or U251 cells) (enzyme, human, UniProt O14920 1-756, looked up) MSWSPSLTTQTCGAWEMKERLGTGGFGNVIRWHNQETGEQIAIKQCRQELSPRNRERWCLEIQIMRRLTHPNVVAARDVPEGMQNLAPNDLPLLAMEYCQGGDLRKYLNQFENCCGLREGAILTLLSDIASALRYLHENRIIHRDLKPENIVLQQGEQRLIHKIIDLGYAKELDQGSLCTSFVGTLQYLAPELLEQQKYTVTVDYWSFGTLAFECITGFRPFLPNWQPVQWHSKVRQKSEVDIVVSEDLNGTVKFSSSLPYPNNLNSVLAERLEKWLQLMLMWHPRQRGTDPTYGPNGCFKALDDILNLKLVHILNMVTGTIHTYPVTEDESLQSLKARIQQDTGIPEEDQELLQEAGLALIPDKPATQCISDGKLNEGHTLDMDLVFLFDNSKITYETQISPRPQPESVSCILQEPKRNLAFFQLRKVWGQVWHSIQTLKEDCNRLQQGQRAAMMNLLRNNSCLSKMKNSMASMSQQLKAKLDFFKTSIQIDLEKYSEQTEFGITSDKLLLAWREMEQAVELCGRENEVKLLVERMMALQTDIVDLQRSPMGRKQGGTLDDLEEQARELYRRLREKPRDQRTEGDSQEMVRLLLQAIQSFEKKVRVIYTQLSKTVVCKQKALELLPKVEEVVSLMNEDEKTVVRLQEKRQKELWNLLKIACSKVRGPVSGSPDSMNASRLSQPGQLMSQPSTASNSLPEPAKKSEELVAEAHNLCTLLENAIQDTVREQDQSFTALDWSWLQTEEEEHSCLEQAS	binds	–
bacterially purified His-IKKβ (enzyme, human, UniProt O14920 1-756, looked up, not shown: small tags and cut ends) MSWSPSLTTQTCGAWEMKERLGTGGFGNVIRWHNQETGEQIAIKQCRQELSPRNRERWCLEIQIMRRLTHPNVVAARDVPEGMQNLAPNDLPLLAMEYCQGGDLRKYLNQFENCCGLREGAILTLLSDIASALRYLHENRIIHRDLKPENIVLQQGEQRLIHKIIDLGYAKELDQGSLCTSFVGTLQYLAPELLEQQKYTVTVDYWSFGTLAFECITGFRPFLPNWQPVQWHSKVRQKSEVDIVVSEDLNGTVKFSSSLPYPNNLNSVLAERLEKWLQLMLMWHPRQRGTDPTYGPNGCFKALDDILNLKLVHILNMVTGTIHTYPVTEDESLQSLKARIQQDTGIPEEDQELLQEAGLALIPDKPATQCISDGKLNEGHTLDMDLVFLFDNSKITYETQISPRPQPESVSCILQEPKRNLAFFQLRKVWGQVWHSIQTLKEDCNRLQQGQRAAMMNLLRNNSCLSKMKNSMASMSQQLKAKLDFFKTSIQIDLEKYSEQTEFGITSDKLLLAWREMEQAVELCGRENEVKLLVERMMALQTDIVDLQRSPMGRKQGGTLDDLEEQARELYRRLREKPRDQRTEGDSQEMVRLLLQAIQSFEKKVRVIYTQLSKTVVCKQKALELLPKVEEVVSLMNEDEKTVVRLQEKRQKELWNLLKIACSKVRGPVSGSPDSMNASRLSQPGQLMSQPSTASNSLPEPAKKSEELVAEAHNLCTLLENAIQDTVREQDQSFTALDWSWLQTEEEEHSCLEQAS	–	binds
